Laboratory results from PMC6207862.
No constants are given. Whether binding was seen depends on the method and setting. Some entries that bind do so weakly or less than the wild type.

Chains of the proteins cited; added tags and fusions are not shown. Residues count along the entry.
UniProt Q9JHJ8, residues 47-277: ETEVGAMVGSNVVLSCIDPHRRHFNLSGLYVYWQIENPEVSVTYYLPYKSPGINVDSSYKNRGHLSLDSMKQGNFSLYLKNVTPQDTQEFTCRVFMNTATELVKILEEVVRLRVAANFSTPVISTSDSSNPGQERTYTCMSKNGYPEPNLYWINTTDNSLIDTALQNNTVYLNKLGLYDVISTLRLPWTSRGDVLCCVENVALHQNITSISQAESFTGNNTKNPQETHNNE

Molecular target: T1, murine ICOS receptor on CHO cells (mouse) (UniProt Q9WVS0)
T1 sequence: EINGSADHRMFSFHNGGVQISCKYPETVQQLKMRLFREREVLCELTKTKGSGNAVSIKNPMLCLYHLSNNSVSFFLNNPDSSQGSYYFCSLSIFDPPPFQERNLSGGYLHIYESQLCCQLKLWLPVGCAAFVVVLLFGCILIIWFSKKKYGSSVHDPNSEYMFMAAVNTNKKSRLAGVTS
Assay: cell-based ligand-receptor blocking assay; ICOSL-Fc in solution binding to CHO cells expressing murine or human ICOS receptor, with serial dilutions of anti-ICOSL VNAR-Fc; details in ref. 42; only the binder purified

“mICOSL-Fc (from UniProt Q9JHJ8 47-277) (Fc fusion)” was tested. Which binding did it give?
Its binding is “binds”.
